Literature values, collected in patent US20240180994A1 (priority 2021, published 2024).
For at least one compound, name, drawing or mass did not settle the structure.

By UniProt entry, the sequences of proteins in these tests, tags left out.
UniProt P0DTC4, whole entry, looked up: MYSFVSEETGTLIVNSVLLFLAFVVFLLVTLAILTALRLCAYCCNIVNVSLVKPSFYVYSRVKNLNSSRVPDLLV

Target: SARS-CoV-2 envelope (E) protein (Severe acute respiratory syndrome coronavirus 2, UniProt P0DTC4)
Details: modeling studies

## C[C@@H]1O[C@@H](OC[C@H]2O[C@@H](Oc3c(-c4ccc(O)c(O)c4)oc4cc(O)cc(O)c4c3=O)[C@H](O)[C@@H](O)[C@@H]2O)[C@H](O)[C@H](O)[C@H]1O [rutin]
  affinity with E protein: higher affinity with E protein
